## Library screen at single concentrations

Source: ChEMBL document CHEMBL3988442, “University of Dundee, Small-Polar-MMV Screening Library” (2021).

Each number is a percent effect as filed. The record does not define 0% and 100%; most values in the screen are far below 50% and negative numbers occur (in some assays of this library far below -100). The compounds are a random part of those screened. Two or more numbers in one place are separate tests of the same structure; such repeats can differ widely.

A: 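Phenotypic screen: M. tuberculosis growth, glucose 7H9 medium, 3 days; the read-out is not stated. Compounds at 50 µM. The record gives no direction; compounds that gave an IC50 in retests scored well above the rest, so higher reads as more growth inhibition. Of about 69,000 compounds tested this way, about 760 (1.1%) reached 50% or more in at least one test.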
B: 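Phenotypic screen: M. tuberculosis growth, cholesterol and DPPC medium, 4 days; the read-out is not stated. Concentration: 50 µM. Direction is inferred from retests: higher values go with more growth inhibition. About 69,000 compounds were tested under these conditions; 0.54% (about 370) showed 50% or more at least once.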

| structure | A | B |
|---|---|---|
| `Cc1ccc(CN(C)c2nccc(-c3cn(C)nc3C)n2)o1` | -9.137 | 13.25 |
| `Cc1cc(C)nc(NCCSc2cnn[nH]2)n1` | 38 | -5.57 & 5.094 |
| `Cn1ccnc1CC1CCCN(C(=O)Cc2ccccc2)C1` (stereo not given) | 22.69 | -6.73 |
| `COCC1COCCC12CCN(C(=O)COc1ccccc1C)CC2` (stereo not given) | 0.4079 | -31.71 |
| `CCN1CCC2(CC1)CN(CCO)c1ccccc12` | -50.14 & -11.54 | -22.15 |
| `CN1CCN([C@@H]2CCN(C(N)=O)[C@H]2Cc2ccccc2)CC1` | -1.09 & -22.41 | -20.29 |
| `CC(C)n1cc(N2CC(C(=O)N3CCC(C(N)=O)CC3)CC2=O)cn1` (stereo not given) | -1.081 & 25.73 | 19.63 |
| `Cc1ccc(C(=O)NCc2cccnc2-n2cncn2)cc1S(C)(=O)=O` | -10.25 | -21.31 |
| `Cn1ncc(NC(=O)Cn2ccc(-c3ccc(F)cc3)n2)n1` | 14.51 | -12.88 |
| `COCC(c1cccc(C(F)(F)F)c1)N(C)C(=O)c1cc(C)no1` (stereo not given) | -12.8 | -15.57 |
| `c1cnnc(NCC2CN(CCN3CCCCC3)CCO2)c1` (stereo not given) | 17.51 | 13.91 |
| `CCc1n[nH]c(C(=O)N2CCCC3(CN(C)C(=O)O3)C2)c1C` (stereo not given) | -10.06 | -6.305 |
| `Cc1cnc2c(c1)N(C(=O)c1ccc(=O)n(C)c1)CCO2` | 5.111 | -2.627 & -13.03 |
| `CNC(=O)C1CCC(NC(=O)c2cc(C3CC3)n(C(C)(C)C)n2)CC1` (stereo not given) | -2.099 | -23.73 |
| `CCc1ncc2c(n1)CN(CC(=O)Nc1cc(C)no1)CC2` | -16.09 | 2.017 |
| `Cn1c(NCC(=O)N2CCCCC2)c(C#N)c(=O)n(C)c1=O` | 1.281 | -12.27 |
| `O=C(O)C(F)(F)F.[H][C@@]12COC[C@]1(CNC(=O)c1ccccc1)CN(CC1CCOCC1)C2` | 3.802 | -17.61 |
| `CCNC(=O)NCC1(CN2CCOCC2)CCCCC1` | 8.914 | 11.26 |
| `CCOC(C)c1nc(CNc2cccc(Cl)c2OC)cs1` (stereo not given) | 29.46 | 32.95 |
| `Cc1cc(CN2CCc3nn(C)c(=O)cc3C2)no1` | 5.196 | -2.124 |
| `CC(=O)NCc1ccc(C(=O)NC2CCc3nc(C)cn3C2)o1` (stereo not given) | 9.217 | 52.48 |
| `CCOc1ncccc1NC(=O)c1sccc1C` | -1.404 & -1.697 | -3.121 |
| `CSCC(C)(O)CNS(=O)(=O)c1cccc(Cl)c1` (stereo not given) | 19.36 | 1.984 |
| `O=C(O)C(F)(F)F.O=C(c1cccnc1)N1CCC2(CCN(C(=O)N3CCCC3)CC2)C1` | -10.97 | 9.65 |
| `Cc1cc(N2CCC3(CCCN(CCO)C3=O)C2)nc2cc(Cl)ccc12` (stereo not given) | -3.416 | -4.671 |
| `[H][C@@]12CN(Cc3nccs3)C[C@]1([H])CN(C(=O)C1CCOC1)C2` (stereo not given in full) | -3.689 | -7.207 |
| `CC(=O)N1CCCn2c(nc(CNS(=O)(=O)C3CC3)cc2=O)C1` | -14.87 & -8.013 | 5.63 |
| `CN(C)C(C)(C)CNC(=O)C(C)(C)c1ccccc1F` | -15.1 & -7.794 | -5.27 |
| `COc1ccc(CNC(=O)NCC2CCOC2)c(C(F)(F)F)c1` (stereo not given) | -2.669 & -11.04 | -31.37 |
| `O=C(O)c1cccc2c(Br)cccc12` | -2.413 | -11.34 |
| `[H][C@@]12COC[C@]1(COc1nccc(C)n1)CN(C(=O)C1=CCCCC1)C2` | -11.54 | -5.047 |
| `[O-][S+](Cc1c(F)cccc1Cl)Cc1nnnn1C1CC1` (stereo not given) | 25.75 | 9.59 |
| `O=C(COCCOc1ccccc1)NC1CCN(C(=O)C2CC2)CC1` | -16.48 & -3.226 | -4.191 |
| `CNc1cncc(C2CCCN2Cc2ccn(C)n2)n1` (stereo not given) | 21.61 | 6.328 |
| `CN(C)C(=O)N1CCC2(CC1)CCN(Cc1ccccn1)C2=O.O=C(O)C(F)(F)F` | -1.55 | -7.873 |
| `Cc1cnc(-c2nc(C3CCN(Cc4ccccc4O)CC3)no2)cn1` | -1.527 | -0.3531 & -9.083 |
| `Cc1cc(N2CCOC(c3ccc(C(N)=O)cn3)C2)ncn1` (stereo not given) | -16.12 | -24.7 |
| `CCNC(=O)c1cc(OC)c2cc(F)cc(C)c2n1` | 20.98 | 18.83 |
| `Cc1ccc(-c2nc(CN3CCc4cnc(C)nc4C3)no2)cc1` | -4.571 | 0.8348 |
| `COCC(=O)N1CCCN(Cc2cc(C(C)C)no2)CC1` | 102.1 & -8.837 | -59.43 |
| `CCS(=O)(=O)c1ccc2oc([C@H]3CCN(Cc4ccccn4)C3)nc2c1` | 7.038 & 11.15 | 4.693 |
| `O=C(O)C(F)(F)F.O=C(O)C(F)(F)F.O=C(O)C(F)(F)F.[H][C@@]12CO[C@@H](CN3CCN(C)CC3)[C@]1([H])CCN(CCc1ccccc1)C2` | -9.176 | -5.824 |
| `COc1ccc2c(c1)CCCN(C(C)C(=O)NC(N)=O)C2` (stereo not given) | 8.311 | 2.618 |
| `CC(C)(C)c1nnc(CN2CCCC(Cn3cncn3)C2)o1` (stereo not given) | -32.38 | 4.313 |
| `Cc1c(Cl)cccc1S(=O)(=O)NCC(O)c1cccn1C` (stereo not given) | 4.85 & 10.34 | -9.1 |
| `COc1ccc(CC(=O)NCCNS(=O)(=O)c2ccc(C)cc2)cc1` | 2.682 | 10.23 |
| `Cn1cc(I)c(C(=O)NC2CCCCC2)n1` | -24.4 | -23.3 |
| `COc1ccnc(CN2CCC=C(C(C)NC(C)=O)C2)c1OC` (stereo not given) | 4.2 | -17.09 |
| `CCCS(=O)(=O)N1CCC2(CCC(=O)N(CCc3cccnc3)C2)CC1` | -9.726 & -0.2319 | 13.1 |
| `Cc1cnn(CC2CCN(CC(O)CN3CCC(C)CC3)CC2)c1` (stereo not given) | 10.79 & 2.187 | 6.17 |
| `O=C1CCC2(CCN(Cc3cscn3)CC2)CN1CCCO` | 62.02 | -32.27 |
| `COc1cccc(-c2ccnc3nc(N4CCCCC4)[nH]c(=O)c23)c1` | -18.51 | -28.65 |
| `CC(=O)NC1CCCN(C(=O)NCCOc2ccc3c(c2)OCO3)C1` (stereo not given) | 20.92 | -11.24 |
| `Cc1ncc(CNC(=O)Cc2cccs2)c(C2CCCN2C)n1` (stereo not given) | 10.35 | 15.6 |
| `Oc1ncccc1-c1nc(-c2cccc(CN3CCOCC3)c2)no1` | -1.708 | 15.2 |
| `Cc1nnsc1CN(C)C(=O)c1ccc(CSc2nnc[nH]2)o1` | -61.24 & -1.04 | -7.802 |
| `O=C(O)C(F)(F)F.O=C(c1cnccn1)N1CCCC2(CCN(c3ccccn3)C2)C1` (stereo not given) | -24.35 | -7.825 |
| `O=C(O)C(F)(F)F.O=C(O)C(F)(F)F.O=C1CC(c2ccncc2)C2(CCN(Cc3ccc(F)cc3)CC2)N1` (stereo not given) | -22.19 | -19.57 |
| `Cc1cc(C)c(CNC(=O)NC2CCOCC2)c(=O)[nH]1` | 3.044 | -0.6231 |
| `NC(=O)c1ccc(OCC(=O)NC2CCc3c(F)cccc32)cc1` (stereo not given) | 8.189 | -1.847 |
| `O=C(CC1CCCC1)NCCS(=O)(=O)N1CCN(c2ccccn2)CC1` | 47.93 | 6.914 |
| `CCN1CCN(c2ncc(-c3cc(C)no3)c(-c3ccco3)n2)CC1` | 35.76 | 20.27 |
| `CCc1cc(=O)[nH]c2nnc(SCC(=O)NC)n12` | -28.58 | -25.39 |
| `Cc1ccc(NC(=O)Nc2cnc(N3CCN(C)CC3)nc2)c(Cl)c1` | 25.2 | -1.104 |
| `CCc1nc(CNC(C)(CO)C2CCCCC2)no1` (stereo not given) | 12.74 | 2.529 |

Repeated from the top, 8 entries:

structure,A,B
Cc1ccc(CN(C)c2nccc(-c3cn(C)nc3C)n2)o1,-9.137,13.25
Cc1cc(C)nc(NCCSc2cnn[nH]2)n1,38,-5.57 & 5.094
Cn1ccnc1CC1CCCN(C(=O)Cc2ccccc2)C1 (stereo not given),22.69,-6.73
COCC1COCCC12CCN(C(=O)COc1ccccc1C)CC2 (stereo not given),0.4079,-31.71
CCN1CCC2(CC1)CN(CCO)c1ccccc12,-50.14 & -11.54,-22.15
CN1CCN([C@@H]2CCN(C(N)=O)[C@H]2Cc2ccccc2)CC1,-1.09 & -22.41,-20.29
CC(C)n1cc(N2CC(C(=O)N3CCC(C(N)=O)CC3)CC2=O)cn1 (stereo not given),-1.081 & 25.73,19.63
Cc1ccc(C(=O)NCc2cccnc2-n2cncn2)cc1S(C)(=O)=O,-10.25,-21.31